Data from publication doi:10.1101/2020.07.02.185298.
These are yes or no findings as the source states them, for the method shown. In cells and extracts the contact can be indirect. Some entries that bind do so weakly or less than the wild type. Tags and fused reporters may be left off the sequences shown.

Chains of the proteins cited; added tags and fusions are not shown. Lines headed by an entry give the natural chain unless they say otherwise; changes in a name come on top. A line that says so, or that is headed by a name, gives the form on record, which may keep a tag or linker.
UniProt P61586: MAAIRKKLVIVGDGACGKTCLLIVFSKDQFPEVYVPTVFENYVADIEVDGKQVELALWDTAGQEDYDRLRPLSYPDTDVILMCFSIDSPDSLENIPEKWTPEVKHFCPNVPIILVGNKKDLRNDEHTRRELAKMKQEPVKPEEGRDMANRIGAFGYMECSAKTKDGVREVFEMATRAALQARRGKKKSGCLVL
constitutively active HA-RhoA-L30 (P61586, form named): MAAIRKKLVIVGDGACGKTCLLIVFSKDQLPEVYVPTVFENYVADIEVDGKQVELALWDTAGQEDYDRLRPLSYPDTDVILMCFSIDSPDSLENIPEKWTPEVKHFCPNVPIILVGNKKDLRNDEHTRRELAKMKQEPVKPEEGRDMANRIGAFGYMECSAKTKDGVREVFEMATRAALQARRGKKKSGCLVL

Biological target: T1, LOK-CTD-GFP-Flag (LOK_310-968-GFP-Flag) (UniProt O94804)
T1 sequence: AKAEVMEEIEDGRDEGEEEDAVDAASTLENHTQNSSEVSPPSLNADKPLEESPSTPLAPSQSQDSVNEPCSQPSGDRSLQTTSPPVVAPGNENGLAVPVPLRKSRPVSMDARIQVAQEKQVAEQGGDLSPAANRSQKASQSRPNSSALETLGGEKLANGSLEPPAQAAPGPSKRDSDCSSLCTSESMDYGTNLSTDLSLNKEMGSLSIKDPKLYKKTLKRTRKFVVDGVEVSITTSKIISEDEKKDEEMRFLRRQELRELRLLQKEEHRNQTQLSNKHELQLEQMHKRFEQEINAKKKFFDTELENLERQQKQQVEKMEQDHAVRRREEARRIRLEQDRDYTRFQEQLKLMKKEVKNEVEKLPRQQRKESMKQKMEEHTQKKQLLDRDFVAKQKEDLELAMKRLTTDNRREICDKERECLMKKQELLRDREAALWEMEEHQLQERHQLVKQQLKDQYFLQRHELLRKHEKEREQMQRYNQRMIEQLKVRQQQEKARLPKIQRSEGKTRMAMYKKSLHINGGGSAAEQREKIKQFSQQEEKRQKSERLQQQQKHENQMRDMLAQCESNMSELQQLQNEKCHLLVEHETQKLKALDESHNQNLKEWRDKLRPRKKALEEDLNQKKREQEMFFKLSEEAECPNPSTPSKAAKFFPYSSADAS
Test: co-IP

binding: binds
Substance: constitutively active HA-RhoA-L30 (from UniProt P61586 1-193)
